Results are given in words; binding and its absence hold for the method and conditions named. In cells and extracts the contact can be indirect. Some results given as binding are weak or reduced against the parent protein; the word gives no strength. Where a sequence is shown, tags or fusion partners need not be part of it.
What was measured:
[1] = biological target: T1, hRIG-I-D495, FLAG- or V5-tagged, of the screen of glutamine amidotransferases (Fig. S4A) (human) (UniProt O95786); assay: co-IP; 293T cells stably expressing FLAG- or V5-tagged RIG-I transfected with indicated GATs; whole-cell lysates precipitated with anti-FLAG or anti-V5, immunoblot of GATs
T1 sequence: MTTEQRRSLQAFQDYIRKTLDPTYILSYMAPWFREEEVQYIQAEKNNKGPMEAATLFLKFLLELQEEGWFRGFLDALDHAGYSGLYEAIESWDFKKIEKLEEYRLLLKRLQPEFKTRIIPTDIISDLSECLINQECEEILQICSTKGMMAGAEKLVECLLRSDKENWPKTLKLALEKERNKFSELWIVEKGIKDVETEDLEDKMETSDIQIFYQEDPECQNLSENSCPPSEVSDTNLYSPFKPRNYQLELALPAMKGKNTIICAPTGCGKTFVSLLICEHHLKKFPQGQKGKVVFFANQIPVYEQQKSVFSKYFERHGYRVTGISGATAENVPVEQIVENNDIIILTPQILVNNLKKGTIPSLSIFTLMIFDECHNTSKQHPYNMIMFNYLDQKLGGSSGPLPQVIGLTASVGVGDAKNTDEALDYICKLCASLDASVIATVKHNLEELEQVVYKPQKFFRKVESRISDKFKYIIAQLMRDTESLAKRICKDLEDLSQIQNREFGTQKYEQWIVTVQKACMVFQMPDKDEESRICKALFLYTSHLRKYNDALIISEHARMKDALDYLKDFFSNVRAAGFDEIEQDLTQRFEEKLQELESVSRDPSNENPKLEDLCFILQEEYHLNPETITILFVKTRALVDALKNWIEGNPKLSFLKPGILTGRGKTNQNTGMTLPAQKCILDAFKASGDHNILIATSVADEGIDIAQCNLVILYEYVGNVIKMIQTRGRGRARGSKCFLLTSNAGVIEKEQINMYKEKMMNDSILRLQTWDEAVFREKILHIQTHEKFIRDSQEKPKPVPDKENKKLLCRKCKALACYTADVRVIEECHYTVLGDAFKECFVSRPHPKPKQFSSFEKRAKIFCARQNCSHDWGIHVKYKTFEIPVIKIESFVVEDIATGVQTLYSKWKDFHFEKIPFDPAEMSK

By UniProt entry, the sequences of proteins in these tests, tags left out. Residues count along the entry.
UniProt Q06203, residues 12-517: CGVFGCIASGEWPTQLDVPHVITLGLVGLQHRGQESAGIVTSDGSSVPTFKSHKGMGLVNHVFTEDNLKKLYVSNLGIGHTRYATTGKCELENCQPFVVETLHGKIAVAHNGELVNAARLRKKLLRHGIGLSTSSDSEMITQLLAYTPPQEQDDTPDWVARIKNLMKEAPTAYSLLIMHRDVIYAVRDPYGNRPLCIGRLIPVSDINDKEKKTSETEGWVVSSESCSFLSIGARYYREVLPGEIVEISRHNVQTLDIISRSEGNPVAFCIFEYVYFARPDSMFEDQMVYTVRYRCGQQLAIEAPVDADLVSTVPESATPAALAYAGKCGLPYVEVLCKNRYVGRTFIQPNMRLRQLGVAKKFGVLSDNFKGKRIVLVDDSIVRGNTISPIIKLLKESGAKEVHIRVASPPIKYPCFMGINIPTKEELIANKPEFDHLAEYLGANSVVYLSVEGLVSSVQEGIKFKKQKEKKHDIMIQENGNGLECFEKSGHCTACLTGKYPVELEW
UniProt P27708: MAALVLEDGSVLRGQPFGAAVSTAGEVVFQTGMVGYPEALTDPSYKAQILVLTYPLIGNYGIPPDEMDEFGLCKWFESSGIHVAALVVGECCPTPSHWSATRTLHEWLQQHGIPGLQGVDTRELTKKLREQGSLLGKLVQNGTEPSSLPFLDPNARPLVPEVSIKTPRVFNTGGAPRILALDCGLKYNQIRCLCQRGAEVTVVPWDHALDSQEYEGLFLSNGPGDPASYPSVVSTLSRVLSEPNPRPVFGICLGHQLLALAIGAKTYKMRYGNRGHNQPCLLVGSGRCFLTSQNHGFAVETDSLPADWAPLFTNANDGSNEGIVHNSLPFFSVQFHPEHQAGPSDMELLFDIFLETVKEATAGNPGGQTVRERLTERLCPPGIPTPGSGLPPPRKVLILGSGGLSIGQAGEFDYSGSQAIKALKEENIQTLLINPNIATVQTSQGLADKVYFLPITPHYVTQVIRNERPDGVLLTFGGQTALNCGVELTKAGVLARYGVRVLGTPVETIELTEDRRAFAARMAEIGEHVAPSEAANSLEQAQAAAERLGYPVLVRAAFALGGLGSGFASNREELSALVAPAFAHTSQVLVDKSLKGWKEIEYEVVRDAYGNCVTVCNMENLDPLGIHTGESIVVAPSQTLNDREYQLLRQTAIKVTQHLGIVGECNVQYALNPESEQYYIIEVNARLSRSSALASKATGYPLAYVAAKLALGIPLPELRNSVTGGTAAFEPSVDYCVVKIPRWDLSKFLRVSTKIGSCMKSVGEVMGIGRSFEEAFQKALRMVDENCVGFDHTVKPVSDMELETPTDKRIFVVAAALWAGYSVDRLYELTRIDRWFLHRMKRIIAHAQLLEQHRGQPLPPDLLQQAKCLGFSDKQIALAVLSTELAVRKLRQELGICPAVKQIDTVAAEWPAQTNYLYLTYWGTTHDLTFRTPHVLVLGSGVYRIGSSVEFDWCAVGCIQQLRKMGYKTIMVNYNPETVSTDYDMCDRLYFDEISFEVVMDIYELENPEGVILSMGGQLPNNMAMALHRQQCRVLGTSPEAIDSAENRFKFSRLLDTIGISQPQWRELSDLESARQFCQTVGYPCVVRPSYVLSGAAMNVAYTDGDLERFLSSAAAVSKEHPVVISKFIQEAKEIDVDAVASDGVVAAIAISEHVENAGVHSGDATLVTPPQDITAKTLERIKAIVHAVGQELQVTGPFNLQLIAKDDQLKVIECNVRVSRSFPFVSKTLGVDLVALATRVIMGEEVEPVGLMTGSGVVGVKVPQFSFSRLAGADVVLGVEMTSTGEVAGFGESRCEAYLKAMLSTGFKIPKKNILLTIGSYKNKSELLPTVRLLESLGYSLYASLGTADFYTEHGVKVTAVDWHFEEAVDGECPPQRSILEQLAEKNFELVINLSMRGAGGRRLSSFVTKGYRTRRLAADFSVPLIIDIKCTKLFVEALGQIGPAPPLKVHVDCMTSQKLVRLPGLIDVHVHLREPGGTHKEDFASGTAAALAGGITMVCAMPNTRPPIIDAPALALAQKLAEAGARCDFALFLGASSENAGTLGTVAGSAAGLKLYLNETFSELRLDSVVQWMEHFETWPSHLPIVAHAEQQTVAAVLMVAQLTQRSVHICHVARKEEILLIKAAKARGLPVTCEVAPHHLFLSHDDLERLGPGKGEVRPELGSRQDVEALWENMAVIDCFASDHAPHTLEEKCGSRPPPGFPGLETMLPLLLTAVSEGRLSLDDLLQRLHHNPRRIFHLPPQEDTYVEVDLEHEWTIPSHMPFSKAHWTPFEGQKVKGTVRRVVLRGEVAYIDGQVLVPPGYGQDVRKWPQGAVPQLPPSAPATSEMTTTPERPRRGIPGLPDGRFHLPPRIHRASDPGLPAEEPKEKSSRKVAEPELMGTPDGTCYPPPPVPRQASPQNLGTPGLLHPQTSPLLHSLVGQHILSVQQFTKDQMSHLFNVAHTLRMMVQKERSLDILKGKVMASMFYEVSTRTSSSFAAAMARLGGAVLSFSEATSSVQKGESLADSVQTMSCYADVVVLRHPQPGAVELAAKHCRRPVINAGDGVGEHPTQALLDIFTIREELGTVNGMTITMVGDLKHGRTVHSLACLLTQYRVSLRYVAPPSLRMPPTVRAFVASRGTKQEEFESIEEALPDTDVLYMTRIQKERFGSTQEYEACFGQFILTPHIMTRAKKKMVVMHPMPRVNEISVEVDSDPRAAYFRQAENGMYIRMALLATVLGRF

[2] = biological target: phosphoribosylpyrophosphate amidotransferase (PPAT), FLAG-tagged (human) (UniProt Q06203); assay: co-IP; 293T cells transiently transfected with GST-tagged RIG-I-D495 and FLAG-tagged GATs (CTPS1 and PPAT); whole-cell lysates precipitated with anti-FLAG (GAT), immunoblot
[3] = biological target: T2, CTPS1, FLAG-tagged (human) (UniProt P17812); assay: as above
T2 sequence: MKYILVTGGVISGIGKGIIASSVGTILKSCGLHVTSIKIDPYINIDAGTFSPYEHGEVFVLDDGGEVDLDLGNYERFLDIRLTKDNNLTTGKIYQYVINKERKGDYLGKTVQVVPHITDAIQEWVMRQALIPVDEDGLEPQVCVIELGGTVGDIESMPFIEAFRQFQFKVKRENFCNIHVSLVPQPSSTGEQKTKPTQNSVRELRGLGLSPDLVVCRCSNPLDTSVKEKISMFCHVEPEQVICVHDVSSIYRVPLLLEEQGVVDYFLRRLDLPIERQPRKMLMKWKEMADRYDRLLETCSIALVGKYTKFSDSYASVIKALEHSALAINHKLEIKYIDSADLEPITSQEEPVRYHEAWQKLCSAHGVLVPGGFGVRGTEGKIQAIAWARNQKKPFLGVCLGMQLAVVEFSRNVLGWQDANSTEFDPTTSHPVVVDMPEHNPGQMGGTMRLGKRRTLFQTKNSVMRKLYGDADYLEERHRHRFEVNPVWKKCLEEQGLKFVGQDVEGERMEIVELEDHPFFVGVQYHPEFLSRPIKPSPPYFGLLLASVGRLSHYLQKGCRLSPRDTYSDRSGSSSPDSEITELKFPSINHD

Molecule: CAD (from UniProt P27708 1-2225) (enzyme)
- binding [1]: binds

B1: glutathione S-transferase (GST)-tagged RIG-I-D495 (protein, UniProt O95786 1-925)
chain: T1 sequence
- binding [2]: binds
- binding [3]: binds

B2: CTPS2 (enzyme, UniProt Q9NRF8 1-586)
chain: MKYILVTGGVISGIGKGIIASSIGTILKSCGLRVTAIKIDPYINIDAGTFSPYEHGEVFVLNDGGEVDLDLGNYERFLDINLYKDNNITTGKIYQHVINKERRGDYLGKTVQVVPHITDAVQEWVMNQAKVPVDGNKEEPQICVIELGGTIGDIEGMPFVEAFRQFQFKAKRENFCNIHVSLVPQLSATGEQKTKPTQNSVRALRGLGLSPDLIVCRSSTPIEMAVKEKISMFCHVNPEQVICIHDVSSTYRVPVLLEEQSIVKYFKERLHLPIGDSASNLLFKWRNMADRYERLQKICSIALVGKYTKLRDCYASVFKALEHSALAINHKLNLMYIDSIDLEKITETEDPVKFHEAWQKLCKADGILVPGGFGIRGTLGKLQAISWARTKKIPFLGVCLGMQLAVIEFARNCLNLKDADSTEFRPNAPVPLVIDMPEHNPGNLGGTMRLGIRRTVFKTENSILRKLYGDVPFIEERHRHRFEVNPNLIKQFEQNDLSFVGQDVDGDRMEIIELANHPYFVGVQFHPEFSSRPMKPSPPYLGLLLAATGNLNAYLQQGCKLSSSDRYSDASDDSFSEPRIAELEIS
- binding [1]: no binding

Reference: article PMC8092204
